Measurements: publication PMC3540084
These are yes or no findings as the source states them, for the method shown. Binding seen in cells or lysates may run through a third protein. Some results given as binding are weak or reduced against the parent protein; the word gives no strength. Tags and fused reporters may be left off the sequences shown.

What was measured:
Experiment in all cases: co-IP; cytosols of cultured HL-1 cardiomyocytes after 6 hr hypoxia; polyclonal Abs to IL-1Ra, caspases or control IL-1beta coupled to Sepharose beads plus protein A/G; precipitates washed in PBS; Western blot with monoclonal Abs; IP compared to unbound (free) supernatant proteins
[1] = biological target: T1, caspase-7 (mouse) (mouse (endogenous in HL-1)) (UniProt P97864)
T1 sequence: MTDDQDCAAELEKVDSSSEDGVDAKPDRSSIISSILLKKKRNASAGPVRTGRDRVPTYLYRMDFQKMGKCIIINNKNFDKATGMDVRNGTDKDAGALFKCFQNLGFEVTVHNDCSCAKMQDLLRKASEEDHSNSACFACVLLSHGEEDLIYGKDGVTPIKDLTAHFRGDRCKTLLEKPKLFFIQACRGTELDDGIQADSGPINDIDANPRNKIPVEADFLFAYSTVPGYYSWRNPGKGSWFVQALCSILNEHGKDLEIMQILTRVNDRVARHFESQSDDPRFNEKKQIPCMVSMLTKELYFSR

[2] = biological target: T2, caspase-3 (mouse) (mouse (endogenous in HL-1)) (UniProt P70677)
T2 sequence: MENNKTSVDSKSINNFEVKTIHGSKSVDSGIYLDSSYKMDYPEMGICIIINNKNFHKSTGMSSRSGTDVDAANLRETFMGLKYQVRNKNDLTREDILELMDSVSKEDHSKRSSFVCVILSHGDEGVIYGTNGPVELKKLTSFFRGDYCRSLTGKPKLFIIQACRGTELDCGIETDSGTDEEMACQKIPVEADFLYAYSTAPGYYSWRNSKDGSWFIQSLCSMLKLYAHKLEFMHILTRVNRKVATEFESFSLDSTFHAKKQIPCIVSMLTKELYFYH

[3] = biological target: T3, caspase-6 (mouse) (mouse (endogenous in HL-1)) (UniProt O08738)
T3 sequence: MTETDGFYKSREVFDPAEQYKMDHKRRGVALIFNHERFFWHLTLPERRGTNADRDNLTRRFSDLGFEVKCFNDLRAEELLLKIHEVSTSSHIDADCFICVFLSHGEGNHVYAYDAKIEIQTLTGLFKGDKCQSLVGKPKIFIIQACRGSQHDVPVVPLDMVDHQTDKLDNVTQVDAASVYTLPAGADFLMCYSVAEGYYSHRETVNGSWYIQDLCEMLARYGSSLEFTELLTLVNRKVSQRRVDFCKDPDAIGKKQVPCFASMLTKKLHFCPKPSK

[4] = biological target: T4, secreted IL-1Ra isoform (mouse interleukin-1 receptor antagonist) (mouse (endogenous in HL-1)) (UniProt P25085)
T4 sequence: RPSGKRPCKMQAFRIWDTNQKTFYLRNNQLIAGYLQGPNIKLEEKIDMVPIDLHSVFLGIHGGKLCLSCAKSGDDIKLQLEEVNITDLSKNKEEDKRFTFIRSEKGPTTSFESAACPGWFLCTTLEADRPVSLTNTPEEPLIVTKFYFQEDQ

Row | Binder | binding [1] | binding [2] | binding [3] | binding [4]
1 | secreted IL-1Ra isoform (mouse interleukin-1 receptor antagonist) (protein, UniProt P25085 27-178) RPSGKRPCKMQAFRIWDTNQKTFYLRNNQLIAGYLQGPNIKLEEKIDMVPIDLHSVFLGIHGGKLCLSCAKSGDDIKLQLEEVNITDLSKNKEEDKRFTFIRSEKGPTTSFESAACPGWFLCTTLEADRPVSLTNTPEEPLIVTKFYFQEDQ | binds weakly | binds | binds weakly | –
2 | IL-1R1 ancillary protein (mouse) (receptor, UniProt Q61730 21-570) SERCDDWGLDTMRQIQVFEDEPARIKCPLFEHFLKYNYSTAHSSGLTLIWYWTRQDRDLEEPINFRLPENRISKEKDVLWFRPTLLNDTGNYTCMLRNTTYCSKVAFPLEVVQKDSCFNSAMRFPVHKMYIEHGIHKITCPNVDGYFPSSVKPSVTWYKGCTEIVDFHNVLPEGMNLSFFIPLVSNNGNYTCVVTYPENGRLFHLTRTVTVKVVGSPKDALPPQIYSPNDRVVYEKEPGEELVIPCKVYFSFIMDSHNEVWWTIDGKKPDDVTVDITINESVSYSSTEDETRTQILSIKKVTPEDLRRNYVCHARNTKGEAEQAAKVKQKVIPPRYTVELACGFGATVFLVVVLIVVYHVYWLEMVLFYRAHFGTDETILDGKEYDIYVSYARNVEEEEFVLLTLRGVLENEFGYKLCIFDRDSLPGGIVTDETLSFIQKSRRLLVVLSPNYVLQGTQALLELKAGLENMASRGNINVILVQYKAVKDMKVKELKRAKTVLTVIKWKGEKSKYPQGRFWKQLQVAMPVKKSPRWSSNDKQGLSYSSLKNV | – | – | – | no binding
